# Laboratory results: the supplement of paper PMC5770031
# Some of the results follow. Repeats in this data set agree poorly, so a single value says little.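 Flies heterozygous for the ATM8 allele over a balancer chromosome carrying normal ATM were mated with each other on treated food. Parents laid eggs for 5–6 days and the young then developed for about 12 days, so both parents and larvae ate the compound. The read-out is the share of all emerged adults that carry two ATM8 copies, compared with 2% DMSO control vials. The paper called compounds neutral at 10–20% such offspring, harmful below 10%, and helpful above 20%.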
# System: Drosophila melanogaster ATM8 (temperature-sensitive ATM allele)
# Assay: fraction of eclosed F1 progeny that are homozygous ATM8 (rescue of developmental lethality); higher = more rescue of ATM8 developmental lethality; extreme values may be limits of the assay
# Details: compound concentration applied to food 0.2 mM; 21 °C
row,SMILES,fraction of eclosed F1 progeny that are homozygous ATM8
1,O=C1CC[C@@]2(O)[C@H]3Cc4ccc(O)c5c4[C@@]2(CCN3CC2CC2)[C@H]1O5,0.0942
2,CCCCC(CC)COC(=O)CC(C(=O)OCC(CC)CCCC)S(=O)(=O)O (stereo not given),0.208
3,CC(=O)O[C@@H]1C[C@H]2C(C)(C)C(=O)C=C[C@]2(C)[C@H]2CC[C@@]3(C)[C@H](c4ccoc4)OC(=O)[C@H]4O[C@]43[C@@]21C,0.231
4,Cc1cc2nc3c(=O)[nH]c(=O)nc-3n(C[C@H](O)[C@H](O)[C@H](O)CO)c2cc1C,0.289
5,CCCOc1ccc2[nH]c(NC(=O)OC)nc2c1,0.113
6,CN(C)CCOC(c1ccccc1)c1ccccc1.Cn1c(=O)c2[nH]c(Cl)nc2n(C)c1=O,0.0698
7,COc1cc(C)c(C(=O)Oc2cc(C)c(C(=O)O)c(O)c2C)c(OC)c1C,0.196
8,O=C1NCC2(CCN(CCc3ccccc3)CC2)O1,0.0435
9,Clc1ccc2c(c1)CCc1cccnc1C2=C1CCNCC1,0.0167
10,CCOC(=O)CC(SP(=S)(OC)OC)C(=O)OCC (stereo not given),0.174
11,CC(=O)[C@@]1(O)CC[C@H]2[C@@H]3CCC4=CC(=O)CC[C@]4(C)[C@H]3CC[C@@]21C,0.222
12,O=C(c1ccc(F)cc1)C1CCN(CCn2c(=O)[nH]c3ccccc3c2=O)CC1,0.25
13,CC(N)Cc1ccc(O)cc1 (stereo not given),0.25
14,C[C@H]1[C@H](C)CC[C@]2(C(=O)O)CC[C@]3(C)C(=CC[C@@H]4[C@@]5(C)CC[C@H](O)C(C)(C)[C@@H]5CC[C@]43C)[C@H]12,0.103
15,Oc1cc2c(cc1O)C1c3ccc(O)c(O)c3OCC1(O)C2 (stereo not given),0.1
16,NC1(C(=O)O)CC1,0.3
17,COc1ccc(-c2cc(=O)c3c(O)c(OC)c(OC)c(OC)c3o2)cc1,0.102
18,CCN(CC)C(=O)c1ccc(O)c(OC)c1,0.103
19,CCCCCCCCCCCCCCCC(=O)OC[C@H](O)[C@H]1OC(=O)C(O)=C1O,0.0286
20,CC(NC(C)(C)C)C(=O)c1cccc(Cl)c1 (stereo not given),0.321
21,O=C(O)CCCO,0.184
22,CN(C)C(=N)NC(=N)N,0.0294
23,CC(=O)OC/C=C(\C)CC/C=C(\C)CC/C=C(\C)CC/C=C(\C)CC/C=C(\C)CC/C=C(\C)CC/C=C(\C)CC/C=C(\C)CCC=C(C)C,0.0615
24,NCc1cccnc1,0.12
25,NCCCCCC(=O)O,0.103
26,CC1=C(C)C(=O)C(C(CCCCCC(=O)O)c2ccccc2)=C(C)C1=O (stereo not given),0
27,CNCCc1ccccn1,0.361
28,CC=CC(=O)N(CC)c1ccccc1C,0.219
29,CC1CC2C3CCC4=CC(=O)C=CC4(C)C3(F)C(O)CC2(C)C1C(=O)CO (stereo not given),0.0978
30,CC1(C)CC2C1CC[C@]1(C)CCC3C(C(=O)O)CC(=O)O[C@@]32C1 (stereo not given in full) [3-HYDROXY-4-(SUCCIN-2-YL)-CARYOLANE delta-LACTONE],0.3

# Two neighbouring entries out of the list so far, quoted:
row,SMILES,fraction of eclosed F1 progeny that are homozygous ATM8
10,CCOC(=O)CC(SP(=S)(OC)OC)C(=O)OCC (stereo not given),0.174
11,CC(=O)[C@@]1(O)CC[C@H]2[C@@H]3CCC4=CC(=O)CC[C@]4(C)[C@H]3CC[C@@]21C,0.222
